The list shows a part of the results. Shown are side measurements of this screen, not its main read-out; they come without a call. Compounds called inactive in the main read-out are mostly missing here. The note in brackets gives the kind of curve behind each potency; many fits are weak.
Assay: qHTS Assay for Lipid Storage Modulators in Drosophila S3 Cells;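 on cell number change: cells counted by Cell Tracker Red CMTPX staining in the red channel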
Conditions: BODIPY lipid droplet fluorescence, 18-24 h; for cell number change: measured here: cell count max response, cells fed with added oleic acid
Procedure, shortened: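 Drosophila S3 cells loaded with oleic acid (400 uM, as added) and compounds at several concentrations; lipid droplets imaged by 488-nm laser-scanning cytometry, 500–530 nm intensity and object ratio to cell channel. Percent activity normalized to 20 uM Triacsin C.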

[1] = measured here: lipid fluorescence (Fed channel) AC50, cells fed with added oleic acid
[2] = measured here: cell number channel AC50, cells fed with added oleic acid

Row | SMILES | cell number change [%] | AC50 [1] | AC50 [2]
1 | CN(Cc1ccc(Br)cc1)CC(O)COc1cccc(Br)c1 (stereo not drawn) | -6.3 | 29.1 µM [falling, partial curve, poor fit] | –
2 | Cc1nn(CC(=O)N(C)C2(C#N)CCCCC2)c(C)c1[N+](=O)[O-] | 7.91 | 0.731 µM [rising, partial curve, poor fit] | –
3 | COc1ccccc1NC(=O)CCNS(=O)(=O)c1ccc2c(c1)CCN2C(C)=O | -7.25 | 20.6 µM [falling, single point] | 2.31 µM [falling, partial curve]
4 | Cc1ccc(S(=O)(=O)N(C)C)cc1NC(=O)COC(=O)CSc1ccccc1 | 11.5 | 11.6 µM [rising, partial curve, poor fit] | –
5 | O=C(CNC(=O)c1ccc(Cl)cc1)OC1CCOC1=O (stereo not drawn) | -25.4 | 4.11 µM [falling, full curve] | 4.61 µM [falling, full curve, poor fit]
6 | O=C(O)CCN(Cc1ccccc1)S(=O)(=O)c1ccc(Cl)cc1F | -46.5 | – | –
7 | Cc1ccc(S(=O)(=O)Oc2ccc(/C=C(/NC(=O)c3ccccc3)C(=O)NCCC(=O)O)cc2)cc1 | -20.4 | 3.66 µM [falling, full curve] | –
8 | COc1ccc(NS(=O)(=O)c2cc(NC(=O)C3CCCO3)ccc2N2CCCCC2)cc1 (stereo not drawn) | -13.8 | 0.0651 µM [falling, full curve, poor fit] | 0.0731 µM [falling, full curve, poor fit]
9 | CCOc1ccc(C(=O)NCC(c2cccs2)N(C)C)cc1 (stereo not drawn) | -9.82 | 20.6 µM [falling, partial curve, poor fit] | –
10 | CCOc1cc2[nH]c(=O)n(CCCN3CCCC3=O)c(=O)c2cc1OCC | 14.8 | 6.51 µM [falling, single point] | –
11 | NC(=O)CCn1ccc2ccccc21 | -35 | 14.6 µM [falling, single point] | 29.1 µM [falling, single point]
12 | C=CCSc1nc(N)c(C#N)c(-c2ccccc2)c1C#N | -12.9 | 0.517 µM [rising, full curve] | –
13 | O=C(CN1CCN(Cc2ccccc2)CC1)NCc1ccccc1Cl | – | 0.13 µM [rising, single point] | 4.11 µM [rising, partial curve, poor fit]
14 | O=C(Nc1ccccc1N1CCOCC1)c1ccc(OCc2cscn2)cc1 | -0.87 | – | –
15 | Cn1c(=O)c2c3c(sc2n2c(SCC(=O)c4ccccc4)nnc12)COC(C)(C)C3 | 5.38 | – | –
16 | COc1ccc(/C(O)=C2\C(=O)C(=O)N(Cc3ccco3)C2c2ccc(OC)cc2OC)cc1 (stereo not drawn) | 50.1 | 29.1 µM [rising, partial curve] | 32.6 µM [rising, single point]
17 | CCc1ccc(NC(=O)CCS(=O)(=O)c2ccc3c(c2)CCN3C(C)=O)cc1 | 17.6 | – | –
18 | O=C(COc1ccc(Br)cc1Br)NNC(=O)c1cccs1 | 14.5 | 29.1 µM [rising, single point] | –
19 | COC(=O)Cc1ccc2oc(-c3cccnc3)nc2c1 | 31.8 | – | –
20 | CCSc1nc2ccccc2c(=O)n1C1CCOC(C)(C)C1 (stereo not drawn) | -27.9 | 32.6 µM [falling, single point] | –
21 | NC(=O)N/N=C/c1c(F)cccc1F | -46 | 16.4 µM [rising, partial curve] | 29.1 µM [falling, single point]
22 | CC1=NCC(C)c2c1[nH]c1ccccc21 (stereo not drawn) | -5.79 | 10.3 µM [falling, single point] | –
23 | CC(Oc1ccccc1Cl)C(=O)N1CCOCC1 (stereo not drawn) | -27 | 29.1 µM [falling, single point] | –
24 | NS(=O)(=O)c1ccc(CCNC(=O)c2cc3ccccc3s2)cc1 | – | 5.62 µM [rising, single point] | 18.4 µM [rising, partial curve]
25 | CC12CC(NC(=O)N1c1cccc(C(=O)N3CCN(c4ccccc4F)CC3)c1)c1ccccc1O2 (stereo not drawn) | 63.7 | 6.51 µM [rising, single point] | 13 µM [rising, partial curve]
26 | O=C(NCc1ccccc1Cl)C(=O)NCC1OCCN1S(=O)(=O)c1cccs1 (stereo not drawn) | 18.6 | 4.61 µM [rising, full curve, poor fit] | –
27 | CC(C)(C)N1C(=O)c2ccc(C(=O)Nc3nccs3)cc2C1=O | 56.3 | – | 14.6 µM [rising, partial curve]
28 | Cc1nn(Cc2ccccc2)c(C)c1NC(=O)CCCn1nc(C)c([N+](=O)[O-])c1C | -44.4 | – | 29.1 µM [falling, single point]

Source: PubChem BioAssay AID2685 (National Center for Advancing Translational Sciences (NCATS), 2010)
